Measurements taken from patent publication US20230121313A1 (priority 2019, published 2023).

Details: sodium heparin human plasma, 25 μL sample
Procedure: This example provides an LC-MS/MS method for the determination of ketamine and norketamine in sodium heparin human plasma using ketamine-d4 and norketamine-d4 as the respective internal standards (IS).
Retention time and peak area were determined by Analyst® Data Acquisition/Processing Software (Version 1.4.2). Analyte concentrations were obtained from a calibration curve constructed by plotting the peak area ratio versus the concentration using Watson LIMS (Version 7.3). Watson LIMS and Microsoft Office Excel were used for statistical calculations. When Office Excel was used the calculations were 100% audited. Concentrations were calculated using linear regression according to the following equation: […]
Selectivity is defined as the ability of a chromatographic method to measure a response from the analyte without interference from the biological matrix. This was accomplished by evaluating six individual lots of human plasma prepared as blank and at the lower limit of quantitation (LLOQ, 0.500 ng/mL).
The matrix effect is defined as the suppression or enhancement of ionization of analytes by the presence of matrix components in the biological samples. See, e.g., C. T. Viswanathan, “Quantitative Bioanalytical Methods Validation and Implementation: Best Practices for Chromatographic and Ligand Binding Assays,” Pharmaceutical Research, Vol. 24, No. 10, October 2007, p. 1969. […]

SMILES	Lower limit of quantitation (LLOQ)
CNC1(c2ccccc2Cl)CCCCC1=O (racemic) [ketamine, reference compound]	0.500 ng/mL
NC1(c2ccccc2Cl)CCCCC1=O (centres unmarked) [Norketamine]	0.500 ng/mL
